Test results as given in PubChem BioAssay AID256 (DTP/NCI, 2004).
The list shows only some results of the screen, not a fair sample: it gathers some chemical classes. Other doses and runs of a compound may be missing. T/C gives the treated animals as a percentage of the vehicle group. Some doses have a count of surviving animals in place of a T/C: the source holds a T/C of zero for them, seemingly a mark for toxic or unscored doses. Some doses without a T/C left all or most animals alive at the check, yet need not have been tolerated: the source hardly ever lists a survival T/C far under the control, and the zero likely stands for such cases as well. Survivors were counted at the toxicity check, usually on the fifth day, unless a day is given; later deaths do not show. Schedules are NCI's codes, taken here to give the interval after Q, in days (D) or hours (H), and the number of doses after X. Marks such as (2×) give the number of equal values in this list. Some doses were run more than once; the results are listed from low to high. Some metal complexes and salts are drawn in pieces, as in the source, so charges may not balance. Where survival is the endpoint, this PubChem deposit counts one and a half times the control or more as active, and values a quarter to a half above the control carry no call in these data; other NCI protocols may use other cut-offs. Some entries show no survivor count and are marked so; the dose need not have been tolerated. Some T/C values carry the count of animals alive at the toxicity check (mostly the fifth day); without a count or a note in brackets, all were alive then.

Test system: CD2F1 mice, L1210 leukemia ip, survival T/C
Experiment: NCI In Vivo Anticancer Drug Screen. Data for tumor model L1210 Leukemia (intraperitoneal) in CD2F1 (CDF1) mice
Conditions: T/C endpoint: mean survival time, higher T/C = longer survival
Method: The antitumor activity of compounds was measured in mice bearing transplantable tumors. Survival or tumor size were measured and the results are expressed as the measurement made in the treated group (T) divided by the measurement made in the vehicle treated control group (C). The tumor model used in this assay is L1210 Leukemia (intraperitoneal) in CD2F1 (CDF1) mice

[1] = dose: 15.62 mg/kg/injection, schedule: Q01DX001 (ip), vehicle: DMSO
[2] = dose: 62.5 mg/kg/injection, schedule: Q01DX001 (ip), vehicle: DMSO
[3] = dose: 125.0 mg/kg/injection, schedule: Q01DX001 (ip), vehicle: DMSO
[4] = dose: 250.0 mg/kg/injection, schedule: Q01DX001 (ip), vehicle: DMSO
[5] = dose: 500.0 mg/kg/injection, schedule: Q01DX001 (ip), vehicle: DMSO
[6] = dose: 100.0 mg/kg/injection, schedule: Q01DX001 (ip), vehicle: saline with Tween-80
[7] = dose: 200.0 mg/kg/injection, schedule: Q01DX001 (ip), vehicle: saline with Tween-80
[8] = dose: 400.0 mg/kg/injection, schedule: Q01DX001 (ip), vehicle: saline with Tween-80
[9] = dose: 100.0 mg/kg/injection, schedule: Q01DX009 (ip), vehicle: saline
[10] = dose: 200.0 mg/kg/injection, schedule: Q01DX009 (ip), vehicle: saline
[11] = dose: 200.0 mg/kg/injection, schedule: Q01DX001 (ip), vehicle: DMSO
[12] = dose: 400.0 mg/kg/injection, schedule: Q01DX001 (ip), vehicle: DMSO
[13] = dose: 100.0 mg/kg/injection, schedule: Q01DX009 (ip), vehicle: saline with Tween-80
[14] = dose: 200.0 mg/kg/injection, schedule: Q01DX009 (ip), vehicle: saline with Tween-80
[15] = dose: 400.0 mg/kg/injection, schedule: Q01DX009 (ip), vehicle: saline with Tween-80

Compound: C=C1CNP(=O)(N(CCCl)CCCl)OC1 (configuration not stated)
- T/C [1]: 120 % of control
- T/C (dose: 31.25 mg/kg/injection, schedule: Q01DX001 (ip), vehicle: DMSO): 127 % of control
- T/C [2]: 125 % of control
- survivor count [3]: 0 of 6
- survivor count [4]: 0 of 6
- survivor count [5]: 0 of 6

Compound: S=P(Cl)(Cl)c1ccccc1
- T/C [6]: 95 % of control
- T/C [7]: 102 % of control [5 of 6 alive]
- survivor count [8]: 0 of 6

Compound: O=P1(N(CCCl)CCCl)OCCCN1Cl (configuration not stated)
- T/C (dose: 31.25 mg/kg/injection, schedule: Q01DX001 (ip), vehicle: distilled water + Tween-80): 93 % of control
- T/C (dose: 62.5 mg/kg/injection, schedule: Q01DX001 (ip), vehicle: distilled water + Tween-80): 96 % of control
- T/C (dose: 125.0 mg/kg/injection, schedule: Q01DX001 (ip), vehicle: distilled water + Tween-80): 96 % of control
- T/C (dose: 250.0 mg/kg/injection, schedule: Q01DX001 (ip), vehicle: distilled water + Tween-80): 109 % of control
- T/C (dose: 500.0 mg/kg/injection, schedule: Q01DX001 (ip), vehicle: distilled water + Tween-80): 129 % of control

Compound: CCP1(=O)Nc2ccccc2N1
- T/C [9]: 89 % of control [survivor count not shown]
- T/C [10]: 112 % of control [survivor count not shown]
- T/C (dose: 400.0 mg/kg/injection, schedule: Q01DX009 (ip), vehicle: saline): 121 % of control [survivor count not shown]

Compound: N#CC(O)CCOP(N)(=O)N(CCCl)CCCl (configuration not stated)
- T/C (dose: 18.8 mg/kg/injection, schedule: Q01DX001 (ip), vehicle: DMSO): 110 % of control
- T/C (dose: 25.0 mg/kg/injection, schedule: Q01DX001 (ip), vehicle: DMSO, evaluated on day 25): 111 % of control
- T/C (dose: 25.0 mg/kg/injection, schedule: Q01DX001 (ip), vehicle: DMSO, evaluated on day 40): 108 % of control
- T/C (dose: 37.5 mg/kg/injection, schedule: Q01DX001 (ip), vehicle: DMSO): 117 % of control
- T/C (dose: 50.0 mg/kg/injection, schedule: Q01DX001 (ip), vehicle: DMSO, evaluated on day 25): 127 % of control
- T/C (dose: 50.0 mg/kg/injection, schedule: Q01DX001 (ip), vehicle: DMSO, evaluated on day 40): 123 % of control
- T/C (dose: 75.0 mg/kg/injection, schedule: Q01DX001 (ip), vehicle: DMSO): 119 % of control
- T/C (dose: 100.0 mg/kg/injection, schedule: Q01DX001 (ip), vehicle: DMSO, evaluated on day 25): 195 % of control [5 of 6 alive]
- T/C (dose: 100.0 mg/kg/injection, schedule: Q01DX001 (ip), vehicle: DMSO, evaluated on day 40): 141 % of control
- T/C (dose: 150.0 mg/kg/injection, schedule: Q01DX001 (ip), vehicle: DMSO): 138 % of control
- survivor count [11]: 0 of 6 and 3 of 6
- survivor count [12]: 0 of 6

Compound: COP(=O)(OC)N(CCCl)CCCl
- T/C [9]: 118 % of control [5 of 6 alive]
- survivor count [10]: 4 of 6

Compound: O=C(O)c1[nH]nc(-c2ccc([N+](=O)[O-])cc2[N+](=O)[O-])c1[N+](=O)[O-]
- T/C (dose: 4.7 mg/kg/injection, schedule: Q01DX005 (ip), vehicle: other): 107 % of control
- T/C (dose: 9.4 mg/kg/injection, schedule: Q01DX005 (ip), vehicle: other): 111 % of control
- T/C (dose: 18.8 mg/kg/injection, schedule: Q01DX005 (ip), vehicle: other): 93 % of control
- T/C (dose: 37.5 mg/kg/injection, schedule: Q01DX005 (ip), vehicle: other): 90 % of control
- T/C (dose: 50.0 mg/kg/injection, schedule: Q01DX005 (ip), vehicle: other): 89 % of control
- T/C (dose: 75.0 mg/kg/injection, schedule: Q01DX005 (ip), vehicle: other): 90 % of control
- T/C (dose: 100.0 mg/kg/injection, schedule: Q01DX005 (ip), vehicle: other): 97 % of control
- T/C (dose: 200.0 mg/kg/injection, schedule: Q01DX005 (ip), vehicle: other): 89 % of control [2 of 3 alive]
- T/C (dose: 400.0 mg/kg/injection, schedule: Q01DX005 (ip), vehicle: other): 97 % of control

Compound: CCN(CC)CCOC(=O)C(O)(c1ccccc1)c1c(C)cc(C)cc1C (configuration not stated)
- T/C (dose: 75.0 mg/kg/injection, schedule: Q01DX001 (ip), vehicle: saline): 108 % of control
- T/C (dose: 150.0 mg/kg/injection, schedule: Q01DX001 (ip), vehicle: saline): 103 % of control
- T/C (dose: 300.0 mg/kg/injection, schedule: Q01DX001 (ip), vehicle: saline): 105 % of control

Compound: CN1CC2CC(C1)CN(C)C2.F[P-](F)(F)(F)(F)F
- T/C [13]: 105 % of control
- T/C [14]: 103 % of control
- survivor count [15]: 1 of 6

Compound: CC(=O)C(C)COP(=O)(N(CCCl)CCCl)N1CC1 (configuration not stated)
- T/C [1]: 104 % of control
- T/C (dose: 31.3 mg/kg/injection, schedule: Q01DX001 (ip), vehicle: DMSO): 103 % of control
- T/C [2]: 108 % of control
- T/C [3]: 129 % of control
- T/C [4]: 123 % of control [5 of 6 alive]
- survivor count [5]: 0 of 6

Compound: O=[As](O)(O)c1ccc(Cl)cc1
- survivor count (dose: 25.0 mg/kg/injection, schedule: Q01DX009 (ip), vehicle: saline with Tween-80): 1 of 6
- survivor count (dose: 50.0 mg/kg/injection, schedule: Q01DX009 (ip), vehicle: saline with Tween-80): 0 of 6
- survivor count [13]: 0 of 6 (2×)
- survivor count [14]: 0 of 6
- survivor count [15]: 0 of 6

Compound: CCCCCCCCCCCCOP(OCC)OCC
- T/C (dose: 100.0 mg/kg/injection, schedule: Q04DX002 (ip), vehicle: saline with Tween-80): 96 % of control
- T/C (dose: 200.0 mg/kg/injection, schedule: Q04DX002 (ip), vehicle: saline with Tween-80): 92 % of control
- survivor count (dose: 400.0 mg/kg/injection, schedule: Q04DX002 (ip), vehicle: saline with Tween-80): 1 of 3

Compound: O=P1(N(CCCl)CCCl)NCC(O)CO1 (configuration not stated)
- T/C (dose: 21.9 mg/kg/injection, schedule: Q01DX001 (ip), vehicle: DMSO): 102 % of control
- T/C (dose: 25.0 mg/kg/injection, schedule: Q01DX001 (ip), vehicle: DMSO): 95 % of control
- T/C (dose: 43.8 mg/kg/injection, schedule: Q01DX001 (ip), vehicle: DMSO): 100 % of control
- T/C (dose: 50.0 mg/kg/injection, schedule: Q01DX001 (ip), vehicle: DMSO): 97 % of control
- T/C (dose: 87.5 mg/kg/injection, schedule: Q01DX001 (ip), vehicle: DMSO): 102 % of control
- T/C (dose: 100.0 mg/kg/injection, schedule: Q01DX001 (ip), vehicle: DMSO): 101 % of control
- T/C (dose: 175.0 mg/kg/injection, schedule: Q01DX001 (ip), vehicle: DMSO): 105 % of control
- T/C [11]: 103 % of control
- T/C (dose: 350.0 mg/kg/injection, schedule: Q01DX001 (ip), vehicle: DMSO): 105 % of control
- T/C [12]: 106 % of control
- T/C (dose: 700.0 mg/kg/injection, schedule: Q01DX001 (ip), vehicle: DMSO): 110 % of control

Compound: O=[N+]([O-])c1cccc(O)c1[N+](=O)[O-]
- T/C (dose: 100.0 mg/kg/injection, schedule: Q04DX003 (ip), vehicle: saline sonified): 98 % of control
- T/C (dose: 200.0 mg/kg/injection, schedule: Q04DX003 (ip), vehicle: saline sonified): 100 % of control
- survivor count (dose: 400.0 mg/kg/injection, schedule: Q04DX003 (ip), vehicle: saline sonified): 5 of 6

Compound: CCOP1(N)=NP(Cl)(Cl)=NP(Cl)(Cl)=N1 (configuration not stated)
- T/C [6]: 106 % of control
- T/C [7]: 101 % of control
- survivor count [8]: 0 of 6
